Data published in patent US20250129155A1 (INNOBATION BIO, published 2025).
Positions count from the first letter of the chain named. These are yes or no findings as the source states them, for the method shown. Some binding calls cover weakened binding; strength is not graded here. Where a sequence is shown, tags or fusion partners need not be part of it. Values belong to the binder of their own block, whether it stands above or below them.

By UniProt entry, the sequences of proteins in these tests, tags left out. Residues count along the entry.
UniProt Q08722, residues 19-139: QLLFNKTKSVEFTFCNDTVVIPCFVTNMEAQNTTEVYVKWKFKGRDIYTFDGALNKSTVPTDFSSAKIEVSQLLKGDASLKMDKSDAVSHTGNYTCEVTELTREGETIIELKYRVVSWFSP

Molecular target: CD47 protein (Acrobiosystems, cat #CD7-HA2E9) (UniProt Q08722)
Test: ELISA, CD47 protein coated

B1: Hu3A5(V1) antibody (antibody, V domains shown)
VH: EVQLVQSGAEVKKPGASVKVSCKASGYTFTSYWMHWMRQAPGQGLEWIGVIDPSDSYTSYNQKFQGRVTLTVDTSTSTAYMELSSLRSEDTAVYYCARGGKRAMDYWGQGTTVTVSS
VL: DVVMTQSPLSLPVTLGQPASISCRSSQSLVHSNGNTYLHWFQQRPGQSPRLLIYKVSNRFSGVPDRFSGSGSGTDFTLKISRVEAEDVGVYFCSQSTHVPFTFGGGTKLEIK
- binding: binds

B2: Hu3A5 (V3) antibody (antibody, V domains shown)
VH: B1 VH
VL: DVVMTQSPDSLAVSLGERATINCKSSQSLVHSNGNTYLHWYQQKPGQPPKLLIYKVSNRFSGVPDRFSGSGSGTDFTLTISSLQAEDVAVYFCSQSTHVPFTFGGGTKLEIK
- binding: binds

B3: Hu3A5 (V9) antibody (antibody, V domains shown)
VH: EVQLVQSGSELKKPGASVKVSCKASGYTFTSYWMHWMRQAPGQGLEWIGVIDPSDSYTSYNQGFTGRFVLSVDTSVSTAYLQISSLKAEDTAVYYCARGGKRAMDYWGQGTTVTVSS
VL: B1 VL
- binding: binds

B7: Hu3A5 (V5) antibody (antibody, V domains shown)
VH: B1 VH with E1Q, M37V, I48M, L70M
VL: B1 VL
- binding: binds

B8: Hu3A5 (V2) antibody (antibody, V domains shown)
VH: B1 VH
VL: B1 VL with F92Y
- binding: binds

B10: Hu3A5(V10) antibody (antibody, V domains shown)
VH: B3 VH
VL: B1 VL with F92Y
notes: also called humanized 3A5(V10) antibody; humanized Hu3A5(V10) antibody
- binding: binds

B11: Hu3A5(V11) antibody (antibody, V domains shown)
VH: B3 VH
VL: B2 VL
- binding: binds

Other lines, results leading:

- binding: binds
B4: Hu3A5 (V4) antibody (antibody, V domains shown)
VH: B1 VH
VL: B2 VL with F92Y

- binding: binds
B5: Hu3A5 (V6) antibody (antibody, V domains shown)
VH: B1 VH with E1Q, M37V, I48M, L70M
VL: B1 VL with F92Y

- binding: binds
B6: Hu3A5 (V8) antibody (antibody, V domains shown)
VH: B1 VH with E1Q, M37V, I48M, L70M
VL: B2 VL with F92Y

- binding: binds
B9: Hu3A5 (V7) antibody (antibody, V domains shown)
VH: B1 VH with E1Q, M37V, I48M, L70M
VL: B2 VL

- binding: binds
B12: Hu3A5(V12) antibody (antibody, V domains shown)
VH: B3 VH
VL: B2 VL with F92Y
